Data taken from patent US20060135403A1, “Therapeutic formulations for the treatment of beta-amyloid related diseases” (priority 2002, published 2006).
At least one compound was matched to its structure with a doubt left.

By UniProt entry, the sequences of proteins in these tests, tags left out. Residues count along the entry.
UniProt P05067, 672-711 limits assumed: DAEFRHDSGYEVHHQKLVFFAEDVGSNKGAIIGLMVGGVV

Target: T1, Aβ1-40 (Homo sapiens, UniProt P05067)
T1 construct: 20 μM of solubilized Aβ40
Assay: Mass spectroscopy (MS) binding assay
Parameters: key: “+++” indicates strong binding; “++” indicates moderate binding; “+” indicates weak binding; “−” indicates no detectable binding
Conditions: 200 μM test compound, 20 μM solubilized Aβ40, 20% ethanol, pH 7.4
Procedure: Test compounds were purchased from commercial sources or synthesized and screened by mass spectroscopy (“MS”) assays. The MS assay gives data on the ability of compounds to bind to an amyloid.
In the mass spectroscopy (“MS”) assay, samples were prepared as aqueous solutions containing 20% ethanol, 200 μM of a test compound and 20 μM of solubilized Aβ40. The pH value of each sample was adjusted to 7.4 (±0.2) by addition of 0.1% aqueous sodium hydroxide. The solutions were then analyzed by electrospray ionization mass spectroscopy using a Waters ZQ 4000 mass spectrometer. Samples were introduced by direct infusion at a flow-rate of […] within 2 hours after sample preparation. The source temperature was kept at 70° C. and the cone voltage was 20 V for all the analysis. Data were processed using Masslynx 3.5 software. The MS assay gives data on the ability of compounds to bind to Aβ, whereas the ThT, EM and CD assays give data on inhibition of fibrillogenesis. “+++” indicates strong binding; “++” indicates moderate binding; “+” indicates weak binding; “−” indicates no detectable binding; and entries left blank were not determined.

SMILES: O=C(NCCCS(=O)(=O)[O-])NC12CC3CC(CC(C3)C1)C2.[Na+] [AK, 3-{[(adamantylamino)carbonyl]amino}-1-propanesulfonic acid, sodium salt]
- MS Binding Aβ1-40: ++
